In publication doi:10.1101/2021.02.07.430097:
These are yes or no findings as the source states them, for the method shown. Binding seen in cells or lysates may run through a third protein. These calls come from enrichment with a bait or labelling near it, and not all partners need be listed. For some of these results: No binding means not detected with the bait. For some of these results: Tags and fused reporters may be left off the sequences shown.

Sequences of proteins named here, by UniProt entry; tags and fusion partners are left off. A change or cut given only in a name is not applied to a line headed by its entry.
UniProt Q9UT61: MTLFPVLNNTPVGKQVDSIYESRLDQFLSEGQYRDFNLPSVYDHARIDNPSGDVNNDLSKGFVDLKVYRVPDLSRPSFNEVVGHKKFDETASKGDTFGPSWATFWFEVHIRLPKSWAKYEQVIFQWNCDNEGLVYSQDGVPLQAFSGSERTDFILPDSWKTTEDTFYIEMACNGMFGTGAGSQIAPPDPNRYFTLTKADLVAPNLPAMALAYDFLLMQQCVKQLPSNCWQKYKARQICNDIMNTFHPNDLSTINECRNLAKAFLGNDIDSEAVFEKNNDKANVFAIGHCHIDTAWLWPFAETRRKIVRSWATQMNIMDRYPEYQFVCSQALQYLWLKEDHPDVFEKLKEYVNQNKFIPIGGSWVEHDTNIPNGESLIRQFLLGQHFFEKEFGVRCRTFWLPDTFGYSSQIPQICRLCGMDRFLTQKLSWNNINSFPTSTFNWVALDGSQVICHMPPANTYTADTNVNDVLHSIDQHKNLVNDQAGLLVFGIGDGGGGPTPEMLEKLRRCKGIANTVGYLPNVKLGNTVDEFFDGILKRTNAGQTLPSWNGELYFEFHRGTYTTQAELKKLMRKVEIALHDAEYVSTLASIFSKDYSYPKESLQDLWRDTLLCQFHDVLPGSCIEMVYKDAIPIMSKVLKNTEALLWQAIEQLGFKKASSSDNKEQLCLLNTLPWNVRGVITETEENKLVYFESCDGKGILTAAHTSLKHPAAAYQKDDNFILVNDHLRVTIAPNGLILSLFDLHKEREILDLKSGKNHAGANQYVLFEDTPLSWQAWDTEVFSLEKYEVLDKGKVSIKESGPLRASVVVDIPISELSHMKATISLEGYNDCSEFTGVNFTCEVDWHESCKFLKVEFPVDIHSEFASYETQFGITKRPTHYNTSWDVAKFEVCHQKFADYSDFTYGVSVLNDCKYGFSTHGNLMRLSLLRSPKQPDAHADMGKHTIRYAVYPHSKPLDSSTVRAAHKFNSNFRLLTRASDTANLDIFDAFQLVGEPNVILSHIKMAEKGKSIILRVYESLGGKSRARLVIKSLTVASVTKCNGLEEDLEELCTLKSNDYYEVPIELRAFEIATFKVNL

B1: Lap2 (endogenous) (enzyme, UniProt O94544 1-612)
chain: MKLRLDPSTQSNYHDVSISKLDWHARIDFDQELLHGKVSFVIQSARVSQALSHIILDTSYLEIKNVTINDIPTPFRVDKRRGFLGSALHIVPADEIPSSKSCILTILYSTTKDCTALQFLKPEQTIGGKFPYVFSECQAIHARSFIPCQDTPSVKVPCTFKIRSKLPVIASGIPCGTANFCNGSLEYLFEQKNPIPSYLFCILSGDLASTNIGPRSSVYTEPGNLLACKYEFEHDMENFMEAAEQLTLPYCWTRYDFVILPPSFPYGGMENPNATFATPTLIAGDRSNVNVIAHELAHSWSGNLVTNESWQCFWLNEGMTVFLERKILGRLYGEPTRQFEAIIGWGELEESVKLLGEDSEYTKLIQNLEGRDPDDAFSTVPYEKGSNFLYEIERVIGGPSVFEPFLPFYFRKFAKSTVNEVKFKHALYEYFSPLGLASKLDSIDWDTWYHAPGMPPVKPHFDTTLADPCYKLAESWTNSAKNSDDPSKFSSKDIENWSAGQKSLFLDVVYEAVSFPHNYIKRMGDVYSFAESKNAELSFRFFKLALKSKYKPLYNTIAERVGSVGRMKFVRPIFRLLNEADRAFAIETFEKYKHFYHKICASQVEKDLGLSE
B2: Nbr1 (endogenous) (protein, UniProt Q9P792 1-397)
chain: MLCNRTCPSSDCGILCNHSVPSFPPFHSSVANIHFTKENNLKSNIFEHNNNSPTLRSSSVACNTCLKIIRNDSFHCTKCFDFDVCRDCYAKQAFLHPCPKPHFVLVRSSIPSVASLTCSVNSMSVSPQSNFMYAICDHCEQPIHNVRYKCSVCDDYDICESCLTDNSHSNTHAFVRITKAYPHGLPSFHLFPQFLSAELFESASTVHRSVQCDNCLAHPIVGPRFHCLVCEDYDLCSSCVSHVHHDHHSMLRLTREISASPLHLSKPEKPKVLNFDFKLVEDSILPLELSPGCPFYKIWHIRNTSCQSWPSPLYVKFNGGDKLFPGDNPYSFPITSSVHPGEDVNFTVALKVPEKSNKEIFTAFFNICSDDGSVFHKSLCAFLRVPKSFSRISKSSF

Assays:
Assay in all cases: affinity purification with mass spectrometry
[1] = target: T1, Lap2-YFP-FLAG-His6 (S. pombe) (UniProt O94544)
T1 sequence: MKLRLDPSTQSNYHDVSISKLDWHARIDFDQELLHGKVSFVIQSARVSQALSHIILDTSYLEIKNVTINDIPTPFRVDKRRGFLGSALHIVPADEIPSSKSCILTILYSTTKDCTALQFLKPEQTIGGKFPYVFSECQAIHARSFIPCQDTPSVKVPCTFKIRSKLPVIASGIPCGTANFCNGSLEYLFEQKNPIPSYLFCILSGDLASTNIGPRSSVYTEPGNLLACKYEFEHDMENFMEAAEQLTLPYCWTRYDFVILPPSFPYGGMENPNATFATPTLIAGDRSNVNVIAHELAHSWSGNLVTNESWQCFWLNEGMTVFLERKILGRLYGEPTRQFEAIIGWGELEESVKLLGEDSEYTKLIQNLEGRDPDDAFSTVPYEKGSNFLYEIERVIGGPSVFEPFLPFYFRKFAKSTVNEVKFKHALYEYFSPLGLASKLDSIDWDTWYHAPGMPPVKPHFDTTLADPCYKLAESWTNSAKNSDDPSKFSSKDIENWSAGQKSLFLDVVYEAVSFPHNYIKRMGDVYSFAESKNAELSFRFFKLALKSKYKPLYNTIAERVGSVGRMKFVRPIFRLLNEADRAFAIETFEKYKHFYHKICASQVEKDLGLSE

[2] = target: T2, Nbr1-YFP-FLAG-His6 (S. pombe) (UniProt Q9P792)
T2 sequence: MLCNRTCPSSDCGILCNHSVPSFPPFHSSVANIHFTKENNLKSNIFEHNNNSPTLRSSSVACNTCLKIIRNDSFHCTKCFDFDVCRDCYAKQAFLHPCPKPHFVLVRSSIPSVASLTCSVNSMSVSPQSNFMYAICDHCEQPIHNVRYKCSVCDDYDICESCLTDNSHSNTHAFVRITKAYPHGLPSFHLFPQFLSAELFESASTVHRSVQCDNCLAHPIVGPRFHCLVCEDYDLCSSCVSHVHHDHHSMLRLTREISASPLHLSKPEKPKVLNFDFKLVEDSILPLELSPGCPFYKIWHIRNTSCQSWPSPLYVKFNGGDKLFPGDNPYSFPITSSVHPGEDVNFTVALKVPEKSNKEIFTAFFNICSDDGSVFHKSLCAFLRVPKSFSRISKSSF

[3] = target: Ape2-Venus (S. pombe)

Molecule	binding [1]	binding [2]	binding [3]
Ams1 (endogenous) (from UniProt Q9UT61) (enzyme)	no binding	binds	–
Ape2 (endogenous) (S. pombe (endogenous in S. pombe)) (enzyme)	binds	binds	–
Ape4 (endogenous) (S. pombe (endogenous in S. pombe)) (enzyme)	no binding	binds	–
B1	–	binds	binds
B2	binds	–	binds
